Binding data for 1 substance are collected here from article PMC10880305.

One test deals with T1, KDELR-mCherry (human) (UniProt P24390).
T1 sequence: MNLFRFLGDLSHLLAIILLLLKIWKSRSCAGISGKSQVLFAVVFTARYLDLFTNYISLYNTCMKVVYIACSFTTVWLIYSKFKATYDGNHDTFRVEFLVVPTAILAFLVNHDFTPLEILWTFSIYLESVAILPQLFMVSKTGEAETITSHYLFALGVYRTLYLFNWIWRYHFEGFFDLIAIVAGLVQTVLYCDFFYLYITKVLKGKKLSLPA
The test is described as follows: co-IP; anti-RFP agarose beads, HeLa lysates (20 mM HEPES pH 7.4, 100 mM NaCl, 2 mM DDM, 0.02% CHS), 4 h at 4 °C, western blot of endogenous partners. A general note: In western blotting, separated proteins are transferred to a membrane and probed.

Test [1] addresses T2, endogenously Flag-mCherry tagged KDELR (human (endogenous in HeLa)) (UniProt P24390).
T2 sequence: T1 sequence
The test is described as above.

Results are given in words; binding and its absence hold for the method and conditions named. Binding seen in cells or lysates may run through a third protein. For some assays here: Where a sequence is shown, tags or fusion partners need not be part of it.

For “E-cadherin (endogenous, HeLa) (human (endogenous in HeLa))”, the binding result (with KDELR-mCherry (human); in test [1]) was “no binding” each time.
